According to patent publication US8974801B2, “Long term sustained release pharmaceutical composition containing aqueous suspension of bisphosphonate” (priority 2006, dated 2015):

Experiments:
in vivo = details: female, Sprague-Dawley, rat, im
[1] = rat, in vivo

SMILES: NCCCC(O)(P(=O)(O)O)P(=O)(O)O [Alendronate Calcium, alendronate calcium]
- Tmax (in vivo): 24 h
- Net Bone Absorption Rate, % ([1]; female, Sprague-Dawley): 77%
- Cmax (maximum daily urine excretion) ([1]; im): 74 µg/day
- Cmax for Released Drug (Daily Excretion) ([1]; im): 74
- tmax (time when Cmax appears) ([1]; im): 24 h
